The supplement of paper PMC12823440, “Inhibitors supercharge kinase turnover through native proteolytic circuits” (Nature, 2025)
Some of the results follow. The calls rarely recur for the same compound in another form.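 Kinases, fused to nanoluciferase, were expressed in K562 cells; luminescence was measured every 4 h from 2 to 18 h as percent of control (DMSO = 100%, positive control = 0%). A time point is decreased if signal falls significantly (2 sigma). Hits were called by the authors by a rule that is not shown; the count of time points alone does not decide it.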

Amino acid sequences for entries named in this document (tags omitted). A change or cut given only in a name is not applied to a line headed by its entry.
UniProt P31749: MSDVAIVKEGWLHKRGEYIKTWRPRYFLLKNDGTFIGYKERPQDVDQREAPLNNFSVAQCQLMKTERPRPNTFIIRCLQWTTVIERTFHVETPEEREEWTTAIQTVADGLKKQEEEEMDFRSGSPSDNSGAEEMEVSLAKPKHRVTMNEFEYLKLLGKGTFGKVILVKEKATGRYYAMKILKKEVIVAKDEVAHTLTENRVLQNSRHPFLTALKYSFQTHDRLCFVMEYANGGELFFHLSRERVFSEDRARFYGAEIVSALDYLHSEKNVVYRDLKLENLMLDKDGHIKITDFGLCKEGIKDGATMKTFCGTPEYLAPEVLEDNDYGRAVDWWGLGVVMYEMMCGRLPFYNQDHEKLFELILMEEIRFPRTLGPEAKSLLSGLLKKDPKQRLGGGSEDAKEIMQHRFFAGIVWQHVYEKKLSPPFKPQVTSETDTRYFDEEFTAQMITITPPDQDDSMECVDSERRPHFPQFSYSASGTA
UniProt Q9UM73: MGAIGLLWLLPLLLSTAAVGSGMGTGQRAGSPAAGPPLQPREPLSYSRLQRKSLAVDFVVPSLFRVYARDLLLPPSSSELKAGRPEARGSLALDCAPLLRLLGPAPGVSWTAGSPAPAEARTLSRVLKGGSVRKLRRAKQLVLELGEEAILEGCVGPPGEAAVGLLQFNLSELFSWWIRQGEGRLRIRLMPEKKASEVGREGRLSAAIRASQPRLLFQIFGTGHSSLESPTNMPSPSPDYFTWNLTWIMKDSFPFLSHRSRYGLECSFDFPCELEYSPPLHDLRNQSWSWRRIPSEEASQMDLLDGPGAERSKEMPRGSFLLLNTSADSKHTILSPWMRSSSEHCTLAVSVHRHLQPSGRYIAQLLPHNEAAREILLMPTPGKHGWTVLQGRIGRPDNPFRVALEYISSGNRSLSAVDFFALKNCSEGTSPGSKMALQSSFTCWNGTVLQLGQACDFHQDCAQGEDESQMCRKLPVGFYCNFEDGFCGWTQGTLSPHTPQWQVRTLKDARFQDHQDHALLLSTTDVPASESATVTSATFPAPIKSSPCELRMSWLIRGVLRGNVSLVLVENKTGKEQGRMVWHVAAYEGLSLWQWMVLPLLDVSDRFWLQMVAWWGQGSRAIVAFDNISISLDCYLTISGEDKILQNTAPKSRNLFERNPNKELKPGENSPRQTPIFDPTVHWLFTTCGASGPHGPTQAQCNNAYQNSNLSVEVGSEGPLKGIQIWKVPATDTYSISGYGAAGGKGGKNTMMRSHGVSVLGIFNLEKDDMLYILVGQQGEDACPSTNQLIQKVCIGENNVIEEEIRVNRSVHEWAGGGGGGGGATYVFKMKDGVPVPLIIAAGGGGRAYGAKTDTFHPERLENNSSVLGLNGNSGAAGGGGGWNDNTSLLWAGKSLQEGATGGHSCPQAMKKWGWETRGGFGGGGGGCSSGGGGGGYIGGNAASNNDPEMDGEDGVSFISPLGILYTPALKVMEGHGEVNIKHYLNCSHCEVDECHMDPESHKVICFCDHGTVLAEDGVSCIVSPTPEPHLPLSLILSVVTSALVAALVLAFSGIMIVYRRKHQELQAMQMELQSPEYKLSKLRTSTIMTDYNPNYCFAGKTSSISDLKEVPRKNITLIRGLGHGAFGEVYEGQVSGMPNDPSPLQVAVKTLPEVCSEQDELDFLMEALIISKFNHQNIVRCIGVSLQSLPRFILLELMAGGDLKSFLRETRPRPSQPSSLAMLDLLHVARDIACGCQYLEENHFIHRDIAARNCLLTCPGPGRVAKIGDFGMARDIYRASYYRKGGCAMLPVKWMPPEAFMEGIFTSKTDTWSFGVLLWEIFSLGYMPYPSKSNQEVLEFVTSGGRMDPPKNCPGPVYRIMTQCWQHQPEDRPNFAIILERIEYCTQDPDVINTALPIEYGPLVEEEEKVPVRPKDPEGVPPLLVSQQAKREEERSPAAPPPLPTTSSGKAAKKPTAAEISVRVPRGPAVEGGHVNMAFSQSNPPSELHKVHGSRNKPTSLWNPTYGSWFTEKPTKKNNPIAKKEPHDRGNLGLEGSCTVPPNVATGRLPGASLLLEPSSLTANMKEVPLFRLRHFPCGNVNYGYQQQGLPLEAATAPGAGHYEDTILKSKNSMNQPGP
UniProt P10398: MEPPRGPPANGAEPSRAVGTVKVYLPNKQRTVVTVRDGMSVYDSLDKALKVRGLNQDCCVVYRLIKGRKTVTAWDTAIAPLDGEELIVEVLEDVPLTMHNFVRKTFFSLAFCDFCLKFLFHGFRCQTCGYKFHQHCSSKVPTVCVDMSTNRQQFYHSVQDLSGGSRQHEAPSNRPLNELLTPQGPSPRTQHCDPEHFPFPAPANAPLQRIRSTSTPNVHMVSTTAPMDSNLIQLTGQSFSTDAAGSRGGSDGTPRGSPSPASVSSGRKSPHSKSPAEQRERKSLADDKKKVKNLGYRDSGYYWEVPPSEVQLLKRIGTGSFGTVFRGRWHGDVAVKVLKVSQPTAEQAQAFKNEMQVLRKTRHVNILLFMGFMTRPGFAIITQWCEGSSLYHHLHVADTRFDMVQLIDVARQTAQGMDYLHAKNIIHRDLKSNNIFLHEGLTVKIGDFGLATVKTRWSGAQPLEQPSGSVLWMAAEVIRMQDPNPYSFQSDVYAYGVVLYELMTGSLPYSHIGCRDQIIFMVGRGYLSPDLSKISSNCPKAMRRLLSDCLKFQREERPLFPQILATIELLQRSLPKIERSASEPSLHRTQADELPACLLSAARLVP
UniProt O14965: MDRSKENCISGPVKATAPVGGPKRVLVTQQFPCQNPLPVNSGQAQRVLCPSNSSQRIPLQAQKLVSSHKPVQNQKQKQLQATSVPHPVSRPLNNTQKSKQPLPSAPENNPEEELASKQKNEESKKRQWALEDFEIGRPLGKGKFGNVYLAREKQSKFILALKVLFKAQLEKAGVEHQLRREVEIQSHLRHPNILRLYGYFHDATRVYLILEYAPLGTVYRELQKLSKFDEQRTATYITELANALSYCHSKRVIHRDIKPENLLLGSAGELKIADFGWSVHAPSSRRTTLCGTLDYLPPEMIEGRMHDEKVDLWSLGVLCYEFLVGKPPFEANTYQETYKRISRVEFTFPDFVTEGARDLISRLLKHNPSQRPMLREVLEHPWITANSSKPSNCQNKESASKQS
UniProt Q96GD4, whole entry: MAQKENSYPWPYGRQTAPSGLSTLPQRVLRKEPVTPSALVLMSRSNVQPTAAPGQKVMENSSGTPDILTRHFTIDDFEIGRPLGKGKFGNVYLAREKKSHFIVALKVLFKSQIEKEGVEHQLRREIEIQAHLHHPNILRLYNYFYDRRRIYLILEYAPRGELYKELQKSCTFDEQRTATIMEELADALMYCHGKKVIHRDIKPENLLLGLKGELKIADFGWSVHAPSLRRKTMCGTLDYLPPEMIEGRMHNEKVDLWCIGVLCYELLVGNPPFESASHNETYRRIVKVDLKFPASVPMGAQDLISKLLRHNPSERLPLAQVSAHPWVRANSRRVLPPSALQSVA
UniProt Q9UQB9: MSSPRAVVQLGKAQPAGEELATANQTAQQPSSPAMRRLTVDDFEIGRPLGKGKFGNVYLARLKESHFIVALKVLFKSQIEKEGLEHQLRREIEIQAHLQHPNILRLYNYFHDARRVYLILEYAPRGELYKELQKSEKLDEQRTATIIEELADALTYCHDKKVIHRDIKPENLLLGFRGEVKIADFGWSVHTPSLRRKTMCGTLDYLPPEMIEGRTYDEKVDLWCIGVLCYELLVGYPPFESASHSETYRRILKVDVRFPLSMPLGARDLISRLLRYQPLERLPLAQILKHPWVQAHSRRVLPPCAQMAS
UniProt P51451: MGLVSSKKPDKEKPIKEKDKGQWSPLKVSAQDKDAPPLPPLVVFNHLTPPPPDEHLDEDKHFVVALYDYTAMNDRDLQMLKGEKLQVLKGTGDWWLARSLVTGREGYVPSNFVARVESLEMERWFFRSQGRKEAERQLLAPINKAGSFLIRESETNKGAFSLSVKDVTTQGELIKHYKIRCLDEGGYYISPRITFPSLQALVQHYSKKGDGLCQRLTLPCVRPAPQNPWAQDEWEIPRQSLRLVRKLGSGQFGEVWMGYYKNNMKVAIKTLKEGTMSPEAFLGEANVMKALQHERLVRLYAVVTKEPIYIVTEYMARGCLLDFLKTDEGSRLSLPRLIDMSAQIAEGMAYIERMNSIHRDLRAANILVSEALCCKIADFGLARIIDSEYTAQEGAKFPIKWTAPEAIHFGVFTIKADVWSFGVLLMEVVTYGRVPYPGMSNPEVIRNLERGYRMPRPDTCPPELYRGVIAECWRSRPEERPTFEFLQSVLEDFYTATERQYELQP
UniProt Q06187: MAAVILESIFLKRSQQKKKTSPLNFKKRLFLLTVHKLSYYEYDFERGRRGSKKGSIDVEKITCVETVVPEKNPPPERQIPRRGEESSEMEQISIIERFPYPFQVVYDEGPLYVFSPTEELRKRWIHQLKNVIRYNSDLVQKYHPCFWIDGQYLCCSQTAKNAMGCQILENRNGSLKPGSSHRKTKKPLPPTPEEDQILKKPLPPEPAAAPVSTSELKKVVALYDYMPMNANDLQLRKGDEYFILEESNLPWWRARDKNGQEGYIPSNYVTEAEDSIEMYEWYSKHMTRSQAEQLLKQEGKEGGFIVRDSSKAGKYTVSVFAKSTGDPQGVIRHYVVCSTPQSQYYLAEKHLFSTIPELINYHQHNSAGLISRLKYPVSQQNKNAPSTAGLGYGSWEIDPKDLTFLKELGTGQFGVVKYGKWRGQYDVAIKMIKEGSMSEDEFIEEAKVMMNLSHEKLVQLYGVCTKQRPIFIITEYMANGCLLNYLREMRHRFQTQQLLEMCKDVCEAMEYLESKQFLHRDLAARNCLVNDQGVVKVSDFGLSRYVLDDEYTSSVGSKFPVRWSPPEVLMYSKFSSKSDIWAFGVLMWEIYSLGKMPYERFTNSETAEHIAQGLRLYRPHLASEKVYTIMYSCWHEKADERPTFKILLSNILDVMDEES
UniProt Q9UQM7, whole entry: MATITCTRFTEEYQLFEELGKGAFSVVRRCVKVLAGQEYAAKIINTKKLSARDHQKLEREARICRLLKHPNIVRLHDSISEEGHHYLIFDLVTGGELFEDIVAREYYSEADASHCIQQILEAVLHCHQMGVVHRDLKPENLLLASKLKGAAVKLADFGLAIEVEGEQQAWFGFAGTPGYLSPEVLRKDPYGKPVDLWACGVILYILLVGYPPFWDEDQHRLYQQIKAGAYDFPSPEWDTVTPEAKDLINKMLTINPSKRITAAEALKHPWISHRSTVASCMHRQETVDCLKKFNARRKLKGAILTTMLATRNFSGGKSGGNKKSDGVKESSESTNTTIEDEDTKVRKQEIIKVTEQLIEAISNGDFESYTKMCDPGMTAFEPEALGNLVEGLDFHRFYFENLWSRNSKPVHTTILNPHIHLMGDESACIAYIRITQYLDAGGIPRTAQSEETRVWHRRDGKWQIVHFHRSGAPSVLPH
UniProt Q15131: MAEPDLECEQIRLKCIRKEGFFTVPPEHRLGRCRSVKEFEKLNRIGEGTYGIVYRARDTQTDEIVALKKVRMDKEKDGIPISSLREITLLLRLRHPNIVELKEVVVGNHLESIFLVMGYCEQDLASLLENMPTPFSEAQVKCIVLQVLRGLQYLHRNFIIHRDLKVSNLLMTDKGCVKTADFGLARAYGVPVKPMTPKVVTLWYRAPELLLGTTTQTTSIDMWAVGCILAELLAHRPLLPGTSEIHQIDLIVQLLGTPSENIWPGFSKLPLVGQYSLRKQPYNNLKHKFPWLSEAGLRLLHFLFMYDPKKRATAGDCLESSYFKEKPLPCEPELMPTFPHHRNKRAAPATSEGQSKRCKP
UniProt Q00526: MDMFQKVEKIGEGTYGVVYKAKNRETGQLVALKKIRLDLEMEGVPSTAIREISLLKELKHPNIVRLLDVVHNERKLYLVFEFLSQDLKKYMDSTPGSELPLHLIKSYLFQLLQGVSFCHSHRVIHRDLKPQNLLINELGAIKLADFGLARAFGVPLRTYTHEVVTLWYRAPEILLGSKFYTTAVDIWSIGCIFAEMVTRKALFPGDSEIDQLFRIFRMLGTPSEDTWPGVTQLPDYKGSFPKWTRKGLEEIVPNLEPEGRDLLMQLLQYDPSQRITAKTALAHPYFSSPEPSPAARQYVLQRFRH
UniProt P11802: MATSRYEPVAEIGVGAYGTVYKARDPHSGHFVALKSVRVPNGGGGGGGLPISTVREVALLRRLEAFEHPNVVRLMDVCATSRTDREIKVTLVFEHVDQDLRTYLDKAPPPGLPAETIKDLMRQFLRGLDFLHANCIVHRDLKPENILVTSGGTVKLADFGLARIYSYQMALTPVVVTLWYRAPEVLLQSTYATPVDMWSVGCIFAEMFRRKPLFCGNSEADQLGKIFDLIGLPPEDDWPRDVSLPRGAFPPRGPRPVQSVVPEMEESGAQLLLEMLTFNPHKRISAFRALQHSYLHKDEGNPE

Assays:
Experiment in all cases: kinase-Nluc reporter destabilization hit call (1 = scored as downregulated) (binary); higher = compound decreases kinase abundance
Details in all cases: K562; 2-18 h
[1] = molecular target: ABL1 (UniProt P00519)
[2] = molecular target: AKT1 (UniProt P31749)
[3] = molecular target: ALK (UniProt Q9UM73)
[4] = molecular target: ARAF (UniProt P10398)
[5] = molecular target: AURKA (UniProt O14965)
[6] = molecular target: AURKB (UniProt Q96GD4)
[7] = molecular target: AURKC (UniProt Q9UQB9)
[8] = molecular target: BLK (UniProt P51451)
[9] = molecular target: BMX (UniProt P51813)
[10] = molecular target: BRAF (UniProt P15056)
[11] = tested on: BRAF_V600E
[12] = molecular target: BTK (UniProt Q06187)
[13] = molecular target: CAMK2A (UniProt Q9UQM7)
[14] = molecular target: CAMK2G (UniProt Q13555)
[15] = molecular target: CDK10 (UniProt Q15131)
[16] = molecular target: CDK2 (UniProt P24941)
[17] = molecular target: CDK3 (UniProt Q00526)
[18] = molecular target: CDK4 (UniProt P11802)
[19] = molecular target: CDK5 (UniProt Q00535)
[20] = molecular target: CDK6 (UniProt Q00534)

Measured: kinase-Nluc reporter destabilization hit call

CC(C)(C)NC(=O)c1cncn1C1CCN(c2ccc(-c3nnc(C(F)(F)F)o3)cn2)CC1 (10 µM)
inactive: [1] 0 | [2] 0 | [3] 0 | [4] 0 | [5] 0 | [6] 0 | [7] 0 | [8] 0 | [9] 0 | [10] 0 | [11] 0 | [12] 0 | [13] 0 | [14] 0 | [15] 0 | [16] 0 | [17] 0 | [18] 0 | [19] 0 | [20] 0

CC(c1ccc(-c2cnc3c(-c4ccc(S(N)(=O)=O)c5ccccc45)cnn3c2)cc1)N1CCCC1 (stereo not given) (2.5 µM)
inactive: [1] 0 | [2] 0 | [3] 0 | [4] 0 | [5] 0 | [6] 0 | [7] 0 | [8] 0 | [9] 0 | [10] 0 | [11] 0 | [12] 0 | [13] 0 | [14] 0 | [15] 0 | [16] 0 | [17] 0 | [18] 0 | [19] 0 | [20] 0

CC(C)=CC[C@H](O)C1=CC(=O)c2c(O)ccc(O)c2C1=O [(-)-Alkannin] (2.5 µM)
inactive: [1] 0 | [2] 0 | [3] 0 | [4] 0 | [5] 0 | [6] 0 | [7] 0 | [8] 0 | [9] 0 | [10] 0 | [11] 0 | [12] 0 | [13] 0 | [14] 0 | [15] 0 | [16] 0 | [17] 0 | [18] 0 | [19] 0 | [20] 0

O=C(O)CCc1ccc(O)c(O)c1 [Dihydrocaffeic acid] (10 µM)
inactive: [1] 0 | [2] 0 | [3] 0 | [4] 0 | [5] 0 | [6] 0 | [7] 0 | [8] 0 | [9] 0 | [10] 0 | [11] 0 | [12] 0 | [13] 0 | [14] 0 | [15] 0 | [16] 0 | [17] 0 | [18] 0 | [19] 0 | [20] 0

Reprinted at random: two entries already listed, in no set order.
CC(c1ccc(-c2cnc3c(-c4ccc(S(N)(=O)=O)c5ccccc45)cnn3c2)cc1)N1CCCC1 (stereo not given) (2.5 µM)
inactive: [1] 0 | [2] 0 | [3] 0 | [4] 0 | [5] 0 | [6] 0 | [7] 0 | [8] 0 | [9] 0 | [10] 0 | [11] 0 | [12] 0 | [13] 0 | [14] 0 | [15] 0 | [16] 0 | [17] 0 | [18] 0 | [19] 0 | [20] 0

O=C(O)CCc1ccc(O)c(O)c1 [Dihydrocaffeic acid] (10 µM)
inactive: [1] 0 | [2] 0 | [3] 0 | [4] 0 | [5] 0 | [6] 0 | [7] 0 | [8] 0 | [9] 0 | [10] 0 | [11] 0 | [12] 0 | [13] 0 | [14] 0 | [15] 0 | [16] 0 | [17] 0 | [18] 0 | [19] 0 | [20] 0

Next part.

OC[C@H]1O[C@@H](Oc2cc3c(O)cc(O)cc3[o+]c2-c2cc(O)c(O)c(O)c2)[C@H](O)[C@@H](O)[C@@H]1O [Delphinidin 3-glucoside (chloride)] (10 µM)
inactive: [1] 0 | [2] 0 | [3] 0 | [4] 0 | [5] 0 | [6] 0 | [7] 0 | [8] 0 | [9] 0 | [10] 0 | [11] 0 | [12] 0 | [13] 0 | [14] 0 | [15] 0 | [16] 0 | [17] 0 | [18] 0 | [19] 0 | [20] 0

COc1cc2c[n+](C)c3c4cc5c(cc4ccc3c2cc1OC)OCO5 [Nitidine (chloride)] (2 µM)
inactive: [1] 0 | [2] 0 | [3] 0 | [4] 0 | [5] 0 | [6] 0 | [7] 0 | [8] 0 | [9] 0 | [10] 0 | [11] 0 | [12] 0 | [13] 0 | [14] 0 | [15] 0 | [16] 0 | [17] 0 | [18] 0 | [19] 0 | [20] 0

Nc1ncc(-c2cccc(N3CCNCC3)c2)cc1C(=O)Nc1ccncc1 [PKC-iota inhibitor 1] (10 µM)
inactive: [1] 0 | [2] 0 | [3] 0 | [4] 0 | [5] 0 | [6] 0 | [7] 0 | [8] 0 | [9] 0 | [10] 0 | [11] 0 | [12] 0 | [13] 0 | [14] 0 | [15] 0 | [16] 0 | [17] 0 | [18] 0 | [19] 0 | [20] 0

C=CC(=O)Nc1cc2c(Nc3ccc(OCc4ccccn4)c(Cl)c3)ncnc2cc1OCCN1CCOCC1 (10 µM)
inactive: [1] 0 | [2] 0 | [3] 0 | [4] 0 | [5] 0 | [6] 0 | [7] 0 | [8] 0 | [9] 0 | [10] 0 | [11] 0 | [12] 0 | [13] 0 | [14] 0 | [15] 0 | [16] 0 | [17] 0 | [18] 0 | [19] 0 | [20] 0

CC(C)CC1(O)CCN(C(=O)c2ccc(NS(=O)(=O)c3cccc4nccnc34)cc2)CC1 (10 µM)
inactive: [1] 0 | [2] 0 | [3] 0 | [4] 0 | [5] 0 | [6] 0 | [7] 0 | [8] 0 | [9] 0 | [10] 0 | [11] 0 | [12] 0 | [13] 0 | [14] 0 | [15] 0 | [16] 0 | [17] 0 | [18] 0 | [19] 0 | [20] 0

Cc1ccc(-c2c(C(=O)CCl)n(CCCO)c3ncnc(N)c23)cc1 (10 µM)
active: [6] 1
inactive: [1] 0 | [2] 0 | [3] 0 | [4] 0 | [5] 0 | [7] 0 | [8] 0 | [9] 0 | [10] 0 | [11] 0 | [12] 0 | [13] 0 | [14] 0 | [15] 0 | [16] 0 | [17] 0 | [18] 0 | [19] 0 | [20] 0

CC(C)(C)c1ccc(S(=O)(=O)Nc2ccc(-n3ccnc3)cc2)cc1 (10 µM)
inactive: [1] 0 | [2] 0 | [3] 0 | [4] 0 | [5] 0 | [6] 0 | [7] 0 | [8] 0 | [9] 0 | [10] 0 | [11] 0 | [12] 0 | [13] 0 | [14] 0 | [15] 0 | [16] 0 | [17] 0 | [18] 0 | [19] 0 | [20] 0

C[C@@]1(O)CCC[C@H]1n1c(=O)c(C(F)F)cc2cnc(NC3CCN(S(C)(=O)=O)CC3)nc21 (2.5 µM)
inactive: [1] 0 | [2] 0 | [3] 0 | [4] 0 | [5] 0 | [6] 0 | [7] 0 | [8] 0 | [9] 0 | [10] 0 | [11] 0 | [12] 0 | [13] 0 | [14] 0 | [15] 0 | [16] 0 | [17] 0 | [18] 0 | [19] 0 | [20] 0

CC[C@@]1(c2ccccc2)C2=C(CC(C)(C)CC2=O)Nc2[nH]ncc21 (10 µM)
inactive: [1] 0 | [2] 0 | [3] 0 | [4] 0 | [5] 0 | [6] 0 | [7] 0 | [8] 0 | [9] 0 | [10] 0 | [11] 0 | [12] 0 | [13] 0 | [14] 0 | [15] 0 | [16] 0 | [17] 0 | [18] 0 | [19] 0 | [20] 0

Cc1cc(O)c(C(C)C)cc1N=O [Poloxime] (10 µM)
inactive: [1] 0 | [2] 0 | [3] 0 | [4] 0 | [5] 0 | [6] 0 | [7] 0 | [8] 0 | [9] 0 | [10] 0 | [11] 0 | [12] 0 | [13] 0 | [14] 0 | [15] 0 | [16] 0 | [17] 0 | [18] 0 | [19] 0 | [20] 0

N#Cc1ccc2ncnc(NC3CCC(N4CCOCC4)CC3)c2c1 (stereo not given) (10 µM)
inactive: [1] 0 | [2] 0 | [3] 0 | [4] 0 | [5] 0 | [6] 0 | [7] 0 | [8] 0 | [9] 0 | [10] 0 | [11] 0 | [12] 0 | [13] 0 | [14] 0 | [15] 0 | [16] 0 | [17] 0 | [18] 0 | [19] 0 | [20] 0

COc1cc(S(C)(=O)=O)ccc1Nc1nc2ccc(-c3ccc(NC(=O)[C@H](C)c4ccc(F)cc4)cc3)cn2n1 [Empesertib] (10 µM)
inactive: [1] 0 | [2] 0 | [3] 0 | [4] 0 | [5] 0 | [6] 0 | [7] 0 | [8] 0 | [9] 0 | [10] 0 | [11] 0 | [12] 0 | [13] 0 | [14] 0 | [15] 0 | [16] 0 | [17] 0 | [18] 0 | [19] 0 | [20] 0

O=C(/C=C/c1ccc(O[C@@H]2O[C@H](CO)[C@@H](O)[C@H](O)[C@H]2O[C@@H]2OC[C@](O)(CO)[C@H]2O)cc1)c1ccc(O)cc1O [Isoliquiritin apioside] (10 µM)
inactive: [1] 0 | [2] 0 | [3] 0 | [4] 0 | [5] 0 | [6] 0 | [7] 0 | [8] 0 | [9] 0 | [10] 0 | [11] 0 | [12] 0 | [13] 0 | [14] 0 | [15] 0 | [16] 0 | [17] 0 | [18] 0 | [19] 0 | [20] 0

C/C(=C1/C(=O)Nc2ccc(NC(N)=O)cc21)c1ccc[nH]1 (10 µM)
inactive: [1] 0 | [2] 0 | [3] 0 | [4] 0 | [5] 0 | [6] 0 | [7] 0 | [8] 0 | [9] 0 | [10] 0 | [11] 0 | [12] 0 | [13] 0 | [14] 0 | [15] 0 | [16] 0 | [17] 0 | [18] 0 | [19] 0 | [20] 0
